Some results were stated once for a whole list of compounds, not compound by compound.
System: Wistar rat
Experiment: Acetic acid-induced enteritis-suppressing action
Format: in vivo
Details: 10 mg/kg oral once a day, fourth day

Row | Compound | suppression of intestinal tissue weight increase
1 | CCCOc1ccc(-c2ccc(C(=O)[O-])s2)cc1C#N.[Na+] [Example 1, sodium 5-(3-cyano-4-n-propoxyphenyl)thiophene-2-carboxylate] | ≥ 70%

System: ICR mice
Experiment: Serum uric acid-lowering action after oral administration
Format: in vivo
Details: after 24 hours from the administration
Description: A test compound was orally administered compulsorily to ICR mice using an oral sonde. After 2 hours, 6 hours, and, depending on the compound, further 24 hours from the administration, blood was collected from an abdominal aorta and then serum was separated in a usual manner. Serum uric acid was measured on an absorptiometer (SPECTRA MAX 190, manufactured by Molecular Device) by an uricase method using a uric acid-measuring kit (Uric Acid C-TestWako: Wako Pure Chemical Industries, Ltd.) and a uric acid-lowering ratio was determined according to the following equation. Uric acid-lowering ratio (%)=(Uric acid level of control animal−Uric acid level of test compound-administered animal)×100/Uric acid level of control animal

Row | Compound | uric acid-lowering ratio
2 | CCCOc1ccc(-c2ccc(C(=O)[O-])s2)cc1C#N.[Na+] [Example 1, sodium 5-(3-cyano-4-n-propoxyphenyl)thiophene-2-carboxylate] | ≥ 50%
3 | CC(C)COc1ccc(-c2ccc(C(=O)O)s2)cc1C#N [Example 2, 5-(3-cyano-4-isobutoxyphenyl)thiophene-2-carboxylic acid] | ≥ 50%
4 | CC(C)COc1c(F)cc(-c2ccc(C(=O)O)s2)cc1C#N [Example 54] | ≥ 50%
5 | N#Cc1cc(-c2cc(F)c(C(=O)O)s2)ccc1OC/C=C/c1ccccc1 [Example 47] | ≥ 50%
6 | CC(=O)c1cc(-c2ccc(C(=O)O)s2)ccc1OC1CCCC1 [Example 33] | ≥ 50%
7 | CCCCN(C)c1ccc(-c2ccc(C(=O)[O-])s2)cc1C#N.[Na+] [Example 8, sodium 5-{4-[butyl(methyl)amino]-3-cyanophenyl)thiophene-2-carboxylate] | ≥ 50%

From patent publication US7612108B2, “2-phenylthiophene derivative” (Astellas Pharma Inc., priority 2004, dated 2009)
